{"source": "PubChem BioAssay AID485349", "about": "(National Center for Advancing Translational Sciences (NCATS), 2010)", "note": "The whole screen tested about 320,000 compounds, of which about 620 (0.19%) were called active. The inconclusive results got no clear call from the source; some entries with a clear call stand among them for comparison. The call rests on the fitted dose curve; in most records, active means well fitted activation curve with a large enough effect; inconclusive means small, poorly fitted or top-dose-only effect; inactive means no such curve, though single readings can be large or run the other way. Potencies of inconclusive entries are doubtful fits and often do not repeat."}
{"assay": "qHTS Assay for Identifying a Potential Treatment of Ataxia-Telangiectasia; further: nearly all actives have a fitted effect of over 45% in size; further: potency means the concentration at half of the fitted maximal effect", "settings": "[…] A-T fibroblasts, KAP-1 phosphorylation AlphaLISA, neocarzinostatin DNA damage 30 min before lysis; series mostly up to 57.5 µM", "source_text": "NIH Chemical Genomics Center [NCGC] NIH Molecular Libraries Probe Centers Network [MLPCN] MLPCN Grant: MH089030-01 Assay Submitter (PI): Wei Zheng and Yosef Shiloh Ataxia-telangiectasia (A-T) is a devastating and progressive disease for which, there is no cure. Although A-T is a multisystem disease, it is stereotyped characterized by its neurological symptoms such as truncal ataxia, due to cerebellar cortical degeneration of the Purkinje and granule cells. Other symptoms of A-T are telangiectasias (dilated blood vessels), primary immunodeficiency, marked sensitivity to ionizing radiation (IR), chromosomal instability and predisposition to cancer. The underlying genetic cause of A-T is null mutations in the ATM (A-T mutated) gene. ATM is a nuclear serine/threonine kinase that functions as a master regulator of the cellular responses to double strand breaks (DSBs) in the DNA. Upon activation by DSBs, ATM phosphorylates a plethora of down stream targets, including KAP-1 on […]. KAP-1 phosphorylation occurs shortly in response to DSBs and mediates global chromatin relaxation, which facilitates DSB repair. To screen for small molecules that will compensate for the loss of ATM in cells derived from A-T patients, we monitored KAP-1 phosphorylation as a readout for ATM-like activity using an AlphaLISA assay.\nqHTS Assay Protocol: Step,Parameter,Value,Description 1. Cell Plating, 3 ul, 500 cells/well in OPTI-MEM, 1% FBS, 1% Pen/Strep 2. Incubation, 16-24 hr, 37C, 5% CO2, 95% humidity 3. Library compounds, 23 nl, 76.7 - 0.61uM dilution series final concentration 4. Incubation, 60 min, 37C, 5% CO2, 95% humidity 5. Reagent, 1 ul, 1600 ng/ml NCS in PBS + 0.05% BSA + 0.005% Tween 20 6. Incubation, 30 min, 37C, 5% CO2, 95% humidity 7. Reagent, 1 ul, Premixed detection reagents and lysis buffer 8. Reagent, 1 ul, 0.6% Antifoam A 9. Incubation, 6 hr, 25C, 95% humidity 10. Readout, EnVision, EnVision plate reader. AlphaScreen 1536-well protocol Cells were plated using medium-binding white solid-bottom tissue culture treated Kalypsys plates. Multidrop dispense of 3 uL of […] (hTERT immortalized A-T patient fibroblast cells). Detection reagent and lysis buffer was 3.75nM Rab-a-pKAP1 antibody bound to 75 ng/ul AlphaScreen SA donor bead, 3.75 nM Biot-M-a-KAP1 antibody bound to AlphaLISA protein A acceptor bead, 0.5x protease inhibitor cocktail and 0.25x PerkinElmer lysis buffer. EnVision protocol for 1536-well AlphaScreen read (30ms excitation, 100ms read), about 10 min/plate."}
{"compound": "CCC(C)Sc1nnc(Cc2cc(=O)[nH]c(=O)[nH]2)n1-c1ccc(F)cc1", "note": "(configuration not stated)", "Potency": "inconclusive: 3.55 µM [activator, partial curve]"}
{"compound": "O=C(CSc1n[nH]c(-c2ccncc2)n1)Nc1ccc(Br)cc1", "Potency": "active: 20 µM"}
{"compound": "COc1ccc(/C=C2/SC(=S)N(Cc3ccccc3)C2=O)cc1O", "Potency": "active: 39.8 µM"}
{"compound": "C=CCn1c(SCC(=O)Nc2ccc(N3CCOCC3)cc2)nnc1-c1ccco1", "Potency": "active: 25.1 µM"}
{"compound": "O=C1C2C(c3ccccc3)CC=CC2[C@H](c2ccc(C(F)(F)F)cc2)N1Cc1ccccc1", "note": "(some centres not stated)", "Potency": "inconclusive: 22.4 µM [activator, single point]"}
{"compound": "Cc1ccccc1-c1cc(=O)c2c(O)cccc2o1", "Potency": "active: 39.8 µM"}
{"compound": "O=C1C([N+](=O)[O-])=C(O)c2cccc3cccc1c23", "Potency": "active: 28.2 µM"}
{"compound": "Cc1nc(C)c(-c2ccc(SCc3cccc(F)c3)nn2)s1", "Potency": "inconclusive: 3.55 µM [activator, partial curve]"}
{"compound": "CCCC(O)(CCN1CCCCC1)c1ccc(OCC)cc1", "note": "(configuration not stated)", "Potency": "inconclusive: 20 µM [activator, partial curve, poor fit]"}
{"compound": "CCCCCCCCCC(=O)N/N=C/c1ccc(C)s1", "Potency": "inconclusive: 22.4 µM [activator, single point]"}
{"compound": "CCOC(=O)CC1C(=O)NCCN1C(=O)c1ccc(Cl)cc1Cl", "note": "(configuration not stated)", "Potency": "inconclusive: 2 µM [activator, partial curve]"}
{"compound": "O=C(NCCCN1CCOCC1)c1ccc2c(c1)N(Cc1cccc(F)c1)C(=O)c1ccccc1S2", "Potency": "inconclusive: 3.16 µM [activator, partial curve]"}
{"compound": "Cc1ccc(C)c(-n2c(SCC(=O)NC(C(=O)O)C(C)C)nnc2-c2cccc(Cl)c2)c1", "note": "(configuration not stated)", "Potency": "inconclusive: 10 µM [activator, partial curve]"}
{"compound": "CCOC(=O)N1CCN(c2ncnc3c2[nH]c2ccc(F)cc23)CC1", "Potency": "inactive"}
{"compound": "Cc1ccc(-c2nc3ccc([N+](=O)[O-])cc3[nH]2)cc1", "Potency": "inactive"}
{"compound": "N#Cc1c(-c2ccccc2Cl)c2c([nH]c1=O)-c1ccccc1OC2", "Potency": "inconclusive: 12.6 µM [activator, partial curve]"}
{"compound": "C/C(=N\\NC(=S)NCCc1ccccc1)c1ccc(Cl)cc1Cl", "Potency": "inconclusive: 31.6 µM [activator, partial curve]"}
{"compound": "c1ccc2c(C[C@@H]3CNCCN3CC3CCCCC3)cccc2c1", "Potency": "inconclusive: 7.08 µM [activator, single point]"}
{"compound": "CC(=O)N1CCOc2ccc(S(=O)(=O)N3CC(C)CC(C)C3)cc21", "note": "(configuration not stated)", "Potency": "inactive"}
{"compound": "CC(C)Nc1cc(C(C)(C)C)nc2c(-c3ccccc3)cnn12", "Potency": "inconclusive: 39.8 µM [activator, single point]"}
{"compound": "CCCCSc1cc(C)nc2ncnn12", "Potency": "inconclusive: 35.5 µM [activator, single point]"}
{"compound": "COc1ccc(-n2c(SC3CCOC3=O)nc3ccccc3c2=O)cc1OC", "note": "(configuration not stated)", "Potency": "inconclusive: 0.631 µM [activator, partial curve, poor fit]"}
{"compound": "Cc1ccc2c(CN3CCOCC3)cc(=O)oc2c1C", "Potency": "inconclusive: 0.708 µM [activator, full curve, poor fit]"}
{"compound": "Cc1ccc(C)n1-c1nccc(-c2cccs2)n1", "Potency": "inactive"}
{"compound": "CC1CCN(C(=O)CSc2nc3c(c(=O)n2C)SCC3)CC1", "Potency": "inactive"}
{"compound": "CCOC(=O)C1=CNS(=O)(=O)NC1c1ccc(OC(C)=O)cc1", "note": "(configuration not stated)", "Potency": "inconclusive: 39.8 µM [activator, single point]"}
{"compound": "CC(C)(C)NC(=O)NC(=O)COC(=O)CCC1CCCCC1", "Potency": "inconclusive: 35.5 µM [activator, single point]"}
{"compound": "COc1ccc(C2c3ccc(O)cc3Oc3ncn(CC(C)C)c(=N)c32)cc1", "note": "(configuration not stated)", "Potency": "active: 2.82 µM"}
{"compound": "N#CC(c1ccc(Cl)cc1)c1nc2ccccc2nc1C(F)(F)F", "note": "(configuration not stated)", "Potency": "inconclusive: 0.631 µM [activator, partial curve, poor fit]"}
{"compound": "CCOc1ccc(-c2ncncc2-c2ccccc2OC)c(O)c1", "Potency": "inconclusive: 7.08 µM [activator, partial curve]"}
{"compound": "CCOc1ccc(/C=N/NC(=O)c2csc(C)c2C)c(OCC)c1", "Potency": "inactive"}
{"compound": "CC(=C/c1ccc(C(C)C)cc1)/C=N/NC(=O)CSc1ccccn1", "Potency": "inactive"}
{"compound": "CC(C)c1cc(=O)oc2c3c4c(cc12)CCCN4CCC3", "Potency": "inconclusive: 20 µM [activator, partial curve]"}
{"compound": "CCn1c(SCC(=O)Nc2cc(C)on2)nnc1-c1cccs1", "Potency": "inconclusive: 25.1 µM [activator, single point]"}
{"compound": "COc1ccc(C2C3=C(N=C4SCC(=O)N42)c2ccccc2CC3)cc1", "note": "(configuration not stated)", "Potency": "inconclusive: 3.98 µM [activator, partial curve]"}
{"compound": "N/C(=N\\OC(=O)C1CCCCC1)c1ccc(Br)cc1", "Potency": "inconclusive: 39.8 µM [activator, single point]"}
{"compound": "O=C(OCCc1cc2ccccc2c(=O)o1)c1cccc(Br)c1", "Potency": "inconclusive: 3.16 µM [activator, partial curve]"}
{"compound": "CCOC(=O)c1c(NC(C)=O)sc2c(O)c(Br)cc(Br)c12", "Potency": "inactive"}
{"compound": "O=C(O)c1ccc(C2Nc3ccccc3C(=O)N2Cc2ccccc2)cc1", "note": "(configuration not stated)", "Potency": "inconclusive: 3.16 µM [activator, partial curve]"}
{"compound": "CC(C)=CCCC1(C)C=Cc2c(ccc3c2[nH]c2cc(O)c(C)cc23)O1", "note": "(configuration not stated)", "Potency": "inconclusive: 28.2 µM [activator, single point]"}
{"compound": "NC(=O)c1cc2ccccc2o/c1=N/NC(=O)c1cccc(F)c1", "Potency": "active: 2.82 µM"}
{"compound": "O=S(=O)(c1ccc(N2CCC(c3ccc(Cl)cc3)=N2)cc1)N(CCO)CCO", "Potency": "active: 31.6 µM"}
{"compound": "O=C(C[C@@H]1C/C=C\\C[C@@H](Cc2ccc(F)cc2)C(=O)OC[C@@H]2CCCN2C1=O)N[C@H](CO)Cc1ccccc1", "Potency": "inactive"}
{"compound": "COc1ccc(-c2ccc(-c3nc4ccc(C)cn4c3NC3CCCCC3)cc2OC)cc1", "Potency": "inconclusive: 39.8 µM [activator, partial curve]"}
{"compound": "COc1ccc(NC(=O)/C(C#N)=C/c2ccc(-c3ccc(Cl)c(C(=O)O)c3)o2)cc1", "Potency": "inconclusive: 3.16 µM [activator, partial curve]"}
{"compound": "Cc1ccccc1-c1ccc(Nc2ccc(C(=O)N3CCOCC3)cc2)nn1", "Potency": "inconclusive: 5.62 µM [activator, single point]"}
{"compound": "COc1ccc2c(c1)C(C)CC(C)(C)N2C(=O)CSc1ncn[nH]1", "note": "(configuration not stated)", "Potency": "active: 20 µM"}
{"compound": "N#Cc1cccc(NC(=O)CNc2cccc(S(=O)(=O)N3CCCC3)c2)c1", "Potency": "inactive"}
{"compound": "C(=N\\N1CCN(Cc2cccc3ccccc23)CC1)/c1cccnc1", "Potency": "inconclusive: 8.91 µM [activator, partial curve]"}
{"compound": "Cc1ccccc1S(=O)(=O)Oc1ccc2ccc(O)cc2c1", "Potency": "inconclusive: 4.47 µM [activator, partial curve]"}
{"compound": "CC(C)(C)c1cc2cccnc2n1Cc1cccc(F)c1", "Potency": "active: 28.2 µM"}
{"compound": "CCCc1cc(-c2nc(-c3ccc(Cl)cc3)cs2)ccn1", "Potency": "inconclusive: 39.8 µM [activator, single point]"}
{"compound": "Cc1ccc(C(=O)N2CCN(S(=O)(=O)c3ccccc3[N+](=O)[O-])CC2)o1", "Potency": "inactive"}
{"compound": "CCSc1cc(N2CCCC2)nc(-c2ccc(C)cc2)n1", "Potency": "inconclusive: 12.6 µM [activator, partial curve, poor fit]"}
{"compound": "COc1ccc([C@H]2C(C(=O)O)=C[C@@H](CC3CCCC3)N2S(=O)(=O)c2ccc(C)cc2)cc1OC", "Potency": "inactive"}
{"compound": "COC(=O)[C@@H]1C[C@@]2(O)[C@@H](O)[C@@H](O)[C@@H](O)C[C@H]2N1Cc1ccc(C(F)(F)F)cc1", "Potency": "inconclusive: 39.8 µM [activator, single point]"}
{"compound": "O=C(O)c1ccc(Cn2cnc3sc4c(c3c2=O)CCCC4)cc1", "Potency": "inactive"}
{"compound": "Nn1cnnc1N/N=C/c1ccc(Cl)c([N+](=O)[O-])c1", "Potency": "inconclusive: 39.8 µM [activator, single point]"}
{"compound": "COc1ccc2c(c1)cc(C(=O)N[C@H](C(=O)N1CCC(C(=O)O)CC1)C(C)C)n2C", "Potency": "active: 7.08 µM"}
{"compound": "CCN(C[C@H]1N[C@@](C)(C(=O)OC)[C@H]2C(=O)N(Cc3ccccc3)C(=O)[C@@H]12)C(=O)COC", "Potency": "inactive"}
{"compound": "c1ccc(Cn2c(-c3cccs3)nc3nc4ccccc4nc32)cc1", "Potency": "inconclusive: 3.16 µM [activator, partial curve]"}
{"compound": "CC[C@@H](CC1CCCCC1)C(=O)N(Cc1ccccc1)c1ccccc1", "Potency": "inconclusive: 35.5 µM [activator, single point]"}
{"compound": "CC(C)(C)C1(O)CC(C(F)(F)F)=NN1C(=O)CCCc1ccccc1", "note": "(configuration not stated)", "Potency": "inconclusive: 28.2 µM [activator, single point]"}
{"compound": "O=C(COc1ccc([N+](=O)[O-])cc1)NNC(=O)Nc1ccccc1F", "Potency": "inconclusive: 0.708 µM [activator, full curve, poor fit]"}
{"compound": "Cc1sc2nc(C)n(/N=C/N(C)C)c(=O)c2c1C", "Potency": "inconclusive: 3.98 µM [activator, single point]"}
{"compound": "NS(=O)(=O)c1ccc(N2N=C(c3ccccc3)CC2c2cccc(F)c2)cc1", "note": "(configuration not stated)", "Potency": "active: 39.8 µM"}
{"compound": "C/C=C(\\C)CN1CCC(n2nccc2NC(=O)CCc2ccccc2)CC1", "Potency": "inactive"}
{"compound": "Cc1cc(C)c2c(CC(=O)O)c(C)[nH]c2c1", "Potency": "inactive"}
{"compound": "C=CCSc1nnc(-c2cc3c(s2)-c2ccccc2CC3)o1", "Potency": "inconclusive: 35.5 µM [activator, single point]"}
{"compound": "O=C(N/N=C/c1ccc(O)c(O)c1)N/N=C/c1ccc(O)c(O)c1", "Potency": "inconclusive: 7.08 µM [activator, single point]"}
{"compound": "CCN(CC)c1ccc(/C=C2\\SC(N)=NC2=O)cc1", "Potency": "inactive"}
{"compound": "CCN(CC)c1ccc(/C=C/c2cc(-c3ccccc3)c3ccccc3n2)cc1", "Potency": "active: 11.2 µM"}
